# Data source: PubChem BioAssay AID493246 (Drosophila RNAi Screening Center, 2011)
# Screen: 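Genome-wide search for dsRNAs that reduce cell number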 (primary screen)
# Cell system: Drosophila Kc and S2R+ cells
# Reagent: long dsRNA against Drosophila genes
# Read-out: 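Cell number per well after knock-down, printed as raw plate values; calls were based on per-plate z-scores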
# Scale: Kc cell number and S2R+ cell number: higher = more cells remaining
# Hit rule: 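Active when the per-plate z-score of cell number is 3 or more in the direction of fewer cells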
# The screen tested about 21,000 reagents; this is a random part of those with a known target gene and a result. Over the whole deposit, 429 (2%) got an active call. 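Values are raw and not normalised between plates; calls rest on per-plate z-scores that were not deposited.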 Not stated in the record: the amount of reagent, the time to read-out.
gene,amplicon,"Kc cell number, rep 1","Kc cell number, rep 2","S2R+ cell number, rep 1","S2R+ cell number, rep 2",activity call
Ns4 (GeneID 35338),DRSC03199,1.03e6,1.20e6,8.99e5,6.96e5,inactive
CG12865 (retired record) (GeneID 36633),DRSC06205,1.64e6,1.67e6,1.36e6,1.46e6,inactive
CG12581 (GeneID 40522),DRSC12206,1.48e6,1.51e6,1.33e6,1.35e6,inactive
CG12581 (GeneID 40522),DRSC12207,1.36e6,1.32e6,1.30e6,1.38e6,inactive
Mipp2 (GeneID 31544),DRSC18682,5.83e5,,9.43e5,,inactive
CG2321 (GeneID 43471),DRSC15439,5.49e5,,7.49e5,,inactive
CG10102 (retired record) (GeneID 36596),DRSC05963,1.51e6,1.49e6,1.08e6,1.12e6,inactive
Marf (GeneID 31581),DRSC18329,4.71e5,,6.65e5,,inactive
Got1 (GeneID 36782),DRSC07177,1.31e6,1.39e6,1.14e6,1.16e6,inactive
Jon99Cii (GeneID 43544),DRSC16858,1.47e6,1.52e6,1.07e6,1.14e6,inactive
bumpel (GeneID 41368),DRSC16100,1.49e6,1.61e6,1.33e6,1.43e6,inactive

The list goes on, starting with the last 2 of the part before.
gene,amplicon,"Kc cell number, rep 1","Kc cell number, rep 2","S2R+ cell number, rep 1","S2R+ cell number, rep 2",activity call
Jon99Cii (GeneID 43544),DRSC16858,1.47e6,1.52e6,1.07e6,1.14e6,inactive
bumpel (GeneID 41368),DRSC16100,1.49e6,1.61e6,1.33e6,1.43e6,inactive
mRpS2 (GeneID 33688),DRSC00550,1.66e6,1.72e6,1.18e6,1.38e6,inactive
CG8159 (GeneID 41040),DRSC16392,1.38e6,1.48e6,1.25e6,1.34e6,inactive
Naa80 (GeneID 41195),DRSC16429,1.70e6,1.74e6,1.25e6,1.33e6,inactive
CG5877 (GeneID 32455),DRSC19963,5.30e5,,8.60e5,,inactive
CG34175 (GeneID 5740264),DRSC00424,1.88e6,1.79e6,9.98e5,1.17e6,inactive
CG7786 (GeneID 36802),DRSC07045,1.74e6,1.77e6,1.18e6,1.34e6,inactive
mmy (GeneID 33903),DRSC02002,1.25e6,1.30e6,7.20e5,8.69e5,inactive
CG13081 (GeneID 35245),DRSC02185,1.56e6,1.71e6,1.39e6,3.18e5,inactive
smg (GeneID 39034),DRSC11397,1.22e6,1.28e6,1.20e6,1.17e6,inactive
CG4151 (GeneID 31465),DRSC18351,1.50e6,1.49e6,1.02e6,1.17e6,inactive
Ugt35E1 (GeneID 53504),DRSC15193,1.71e6,1.60e6,1.26e6,1.39e6,inactive
mRpL15 (GeneID 40261),DRSC11771,1.46e6,1.52e6,1.14e6,1.18e6,inactive
Sfxn1-3 (GeneID 40552),DRSC12183,1.27e6,1.26e6,1.32e6,1.40e6,inactive
